# Measured values published in the supplement of paper PMC4604168 (melanoma cell lines).
# The list shows a part of the results. Single values are uncertain, as repeats are few or missing.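 The apoptosis fraction was the count of cleaved-PARP antibody-stained nuclei relative to all DNA-stained nuclei, imaged in 1,536-well plates. Screening doses were set so most cells survived, and baseline and induced cleaved-PARP levels vary greatly across cell lines.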
# System: MeWo
# Assay: cleaved PARP positive nuclei fraction relative to DMSO control; melanoma cells; higher = more apoptosis
# Conditions: library dose: low library concentration; 72 h
row,SMILES,cleaved PARP positive nuclei fraction
1,"Cn1cnc2c(F)c(Nc3ccc(Br)cc3Cl)c(C(=O)NOCCO)cc21 [selumetinib] + Cn1c(Nc2ccc(C(F)(F)F)cc2)nc2cc(Oc3ccnc(-c4ncc(C(F)(F)F)[nH]4)c3)ccc21 [CHIR265] (first compound 0.015 µM, partner dose 0.08 µM)",156%
2,"NC1(c2ccc(-c3nc4ccn5c(=O)[nH]nc5c4cc3-c3ccccc3)cc2)CCC1 + c1cc(-c2cnn3cc(-c4ccc(OCCN5CCCCC5)cc4)cnc23)ccn1 [Dorsomorphin] (first compound 0.4 µM, partner dose 0.4 µM)",62.4%
3,"CC(=O)O[C@@]12CO[C@@H]1C[C@H](O)[C@@]1(C)C(=O)[C@H](O)C3=C(C)[C@@H](OC(=O)[C@H](O)[C@@H](NC(=O)OC(C)(C)C)c4ccccc4)C[C@@](O)([C@@H](OC(=O)c4ccccc4)[C@H]21)C3(C)C [Docetaxel] + CC(=O)c1c(C)c2cnc(Nc3ccc(N4CCNCC4)cn3)nc2n(C2CCCC2)c1=O [palbociclib] (first compound 0.0001 µM, partner dose 0.04 µM)",421%
4,"COc1ccc(C2=N[C@@H](c3ccc(Cl)cc3)[C@@H](c3ccc(Cl)cc3)N2C(=O)N2CCNC(=O)C2)c(OC(C)C)c1 [Nutlin-3] + Nc1nc(F)nc2c1ncn2[C@@H]1O[C@H](CO)[C@@H](O)[C@@H]1O [fludarabine] (first compound 0.1 µM, partner dose 0.2 µM)",303%
5,"CCN(CC)CCNC(=O)c1c(C)[nH]c(/C=C2\C(=O)Nc3ccc(F)cc32)c1C [sunitinib] + C=C(c1ccc(C(=O)O)cc1)c1cc2c(cc1C)C(C)(C)CCC2(C)C [Bexarotene] (first compound 0.4 µM, partner dose 2 µM)",177%
6,"NC(=O)c1ccc(N(C(N)=O)c2c(F)cccc2F)nc1-c1ccc(F)cc1F + Cn1nnc2c(C(N)=O)ncn2c1=O [temozolomide] (first compound 0.4 µM, partner dose 2 µM)",84.5%
7,"CC1(C)CCC(c2ccc(Cl)cc2)=C(CN2CCN(c3ccc(C(=O)NS(=O)(=O)c4ccc(N[C@H](CCN5CCOCC5)CSc5ccccc5)c(S(=O)(=O)C(F)(F)F)c4)cc3)CC2)C1 + CN(c1ncccc1CNc1nc(Nc2ccc3c(c2)CC(=O)N3)ncc1C(F)(F)F)S(C)(=O)=O [PF562271] (first compound 0.4 µM, partner dose 0.08 µM)",388%
8,"Cn1sc(=O)n(Cc2ccccc2)c1=O + CC(C)C[C@H](NC(=O)[C@H](Cc1ccccc1)NC(=O)c1cnccn1)B(O)O [Bortezomib] (first compound 0.4 µM, partner dose 0.001 µM)",97.2%
9,"C[C@]1(O)C[C@@H](c2nc(-c3ccc4ccc(-c5ccccc5)nc4c3)c3c(N)nccn32)C1 + C=CCn1c(=O)c2cnc(Nc3ccc(N4CCN(C)CC4)cc3)nc2n1-c1cccc(C(C)(C)O)n1 [MK1775] (first compound 0.4 µM, partner dose 0.02 µM)",78.7%
10,"CS(=O)(=O)c1ccc(C(=O)Nc2ccc(Cl)c(-c3ccccn3)c2)c(Cl)c1 [vismodegib] + C[C@@H](Oc1cc(-c2cnn(C3CCNCC3)c2)cnc1N)c1c(Cl)ccc(F)c1Cl [Crizotinib] (first compound 1 µM, partner dose 0.2 µM)",149%
11,"CN(c1ncccc1CNc1nc(Nc2ccc3c(c2)CC(=O)N3)ncc1C(F)(F)F)S(C)(=O)=O + Oc1cc(-c2nc(-c3ccccc3)[nH]c2-c2ccncc2)ccc1Cl [L779450] (first compound 0.08 µM, partner dose 0.2 µM)",130%
12,"NC(=O)c1ccc(N(C(N)=O)c2c(F)cccc2F)nc1-c1ccc(F)cc1F + COc1ccc(Cl)c(Nc2nc3ccccc3nc2NS(=O)(=O)c2cccc(NC(=O)C(C)(C)N)c2)c1 [XL147] (first compound 0.4 µM, partner dose 0.8 µM)",186%
13,"CN(c1ncccc1CNc1nc(Nc2ccc3c(c2)CC(=O)N3)ncc1C(F)(F)F)S(C)(=O)=O + Cc1cc(Nc2cc(N3CCN(C)CC3)nc(/C=C/c3ccccc3)n2)n[nH]1 [ENMD2076] (first compound 0.08 µM, partner dose 0.04 µM)",117%
14,"CCCCCCCCc1ccc(CCC(N)(CO)CO)cc1 [fingolimod] + c1cc(-c2cnn3cc(-c4ccc(OCCN5CCCCC5)cc4)cnc23)ccn1 [Dorsomorphin] (first compound 2 µM, partner dose 0.4 µM)",73.8%
15,"CS(=O)(=O)c1ccc(C(=O)Nc2ccc(Cl)c(-c3ccccn3)c2)c(Cl)c1 [vismodegib] + CC(=O)O[C@@]12CO[C@@H]1C[C@H](O)[C@@]1(C)C(=O)[C@H](O)C3=C(C)[C@@H](OC(=O)[C@H](O)[C@@H](NC(=O)OC(C)(C)C)c4ccccc4)C[C@@](O)([C@@H](OC(=O)c4ccccc4)[C@H]21)C3(C)C [Docetaxel] (first compound 1 µM, partner dose 0.0001 µM)",798%
16,"CC(=O)O[C@@]12CO[C@@H]1C[C@H](O)[C@@]1(C)C(=O)[C@H](O)C3=C(C)[C@@H](OC(=O)[C@H](O)[C@@H](NC(=O)OC(C)(C)C)c4ccccc4)C[C@@](O)([C@@H](OC(=O)c4ccccc4)[C@H]21)C3(C)C [Docetaxel] + COc1cc(Nc2ncc(F)c(Nc3ccc4c(n3)NC(=O)C(C)(C)O4)n2)cc(OC)c1OC [Tamatinib] (first compound 0.0001 µM, partner dose 0.4 µM)",284%
17,"CS(=O)(=O)c1ccc(C(=O)Nc2ccc(Cl)c(-c3ccccn3)c2)c(Cl)c1 [vismodegib] + CC1(C)NC(=O)N(c2ccc([N+](=O)[O-])c(C(F)(F)F)c2)C1=O [nilutamide] (first compound 1 µM, partner dose 1 µM)",104%
18,"CCN(CC)CCNC(=O)c1c(C)[nH]c(/C=C2\C(=O)Nc3ccc(F)cc32)c1C [sunitinib] + COCC[n+]1c2c(n(Cc3cnccn3)c1C)C(=O)c1ccccc1C2=O [YM155] (first compound 0.4 µM, partner dose 0.0004 µM)",83.1%
19,"NC1(c2ccc(-c3nc4ccn5c(=O)[nH]nc5c4cc3-c3ccccc3)cc2)CCC1 + Nc1ncn([C@H]2C[C@H](O)[C@@H](CO)O2)c(=O)n1 [decitabine] (first compound 0.4 µM, partner dose 0.1 µM)",142%

# An excerpt of these results, with tabs.
row	SMILES	cleaved PARP positive nuclei fraction
4	COc1ccc(C2=N[C@@H](c3ccc(Cl)cc3)[C@@H](c3ccc(Cl)cc3)N2C(=O)N2CCNC(=O)C2)c(OC(C)C)c1 [Nutlin-3] + Nc1nc(F)nc2c1ncn2[C@@H]1O[C@H](CO)[C@@H](O)[C@@H]1O [fludarabine] (first compound 0.1 µM, partner dose 0.2 µM)	303%
5	CCN(CC)CCNC(=O)c1c(C)[nH]c(/C=C2\C(=O)Nc3ccc(F)cc32)c1C [sunitinib] + C=C(c1ccc(C(=O)O)cc1)c1cc2c(cc1C)C(C)(C)CCC2(C)C [Bexarotene] (first compound 0.4 µM, partner dose 2 µM)	177%
6	NC(=O)c1ccc(N(C(N)=O)c2c(F)cccc2F)nc1-c1ccc(F)cc1F + Cn1nnc2c(C(N)=O)ncn2c1=O [temozolomide] (first compound 0.4 µM, partner dose 2 µM)	84.5%
